According to PMC11559043:
Results are given in words; binding and its absence hold for the method and conditions named. In cells and extracts the contact can be indirect. Some results given as binding are weak or reduced against the parent protein; the word gives no strength.

Protein sequences, listed by entry. Tags and fused reporters are not part of them.
UniProt Q99496: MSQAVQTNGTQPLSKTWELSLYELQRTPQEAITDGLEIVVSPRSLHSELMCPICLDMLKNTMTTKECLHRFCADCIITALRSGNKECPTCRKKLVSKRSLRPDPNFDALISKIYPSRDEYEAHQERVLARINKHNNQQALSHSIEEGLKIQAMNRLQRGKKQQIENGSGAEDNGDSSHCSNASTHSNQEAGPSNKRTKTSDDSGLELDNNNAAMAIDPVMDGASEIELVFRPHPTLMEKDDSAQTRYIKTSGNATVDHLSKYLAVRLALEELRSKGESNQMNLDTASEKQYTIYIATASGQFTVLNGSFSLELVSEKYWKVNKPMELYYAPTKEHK
UniProt P61289: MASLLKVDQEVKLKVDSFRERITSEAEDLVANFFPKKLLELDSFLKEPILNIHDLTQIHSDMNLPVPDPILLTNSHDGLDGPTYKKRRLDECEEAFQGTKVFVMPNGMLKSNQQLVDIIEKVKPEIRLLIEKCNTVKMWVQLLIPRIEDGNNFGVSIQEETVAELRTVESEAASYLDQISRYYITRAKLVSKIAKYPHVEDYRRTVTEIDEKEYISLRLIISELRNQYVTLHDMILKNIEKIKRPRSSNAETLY

Tests used:
[1] = molecular target: N-terminal HA-tagged RNF2 (human) (UniProt Q99496); assay: co-IP; FLAG-PA28γ expressed in 293T cells together with HA-RNF1 or HA-RNF2; harvested 48 h post-transfection; immunoprecipitates with anti-HA or anti-FLAG antibodies blotted with anti-FLAG or anti-HA
[2] = molecular target: N-terminal FLAG-tagged PA28γ (UniProt P61289); assay: as above

N-terminal FLAG-tagged PA28γ (from UniProt P61289 1-254)
binding [1]: binds

N-terminal HA-tagged RNF2 (from UniProt Q99496 1-336)
binding [2]: binds
